Test results as given in PubChem BioAssay AID651610 (Broad Institute, 2012).
The entries are a selection whose mix differs from that of the whole data set. Active and inactive are the calls of the source.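 How the source made its calls: active means mean replicate inhibition score of at least 50 and every replicate individually at or above 50; inconclusive means only one of the two criteria met; inactive means mean below 50 and not all replicates reaching 50.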

Experiment: blockers of JRFL envelope-mediated fusion – HeLa-JRFL effector, CEM21 target cells, luciferase, primary screen (AID 651610);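 further: 0% = plate neutral controls and 100% = maraviroc near 300 nM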
Details: HeLa-JRFL Env/CEM21 cell fusion, at 12.3 µM, active compounds read high

Row | SMILES | inhibition
1 | Cc1nc2ccccc2c(-c2ccccc2)c1CC(=O)O | active: 61.7%
2 | COc1ccccc1C(=O)NNC(=S)NC(=O)c1ccco1 | active: 60.8%
3 | CN(C)C(=O)c1cccc(COc2ccc(N3C(N)=NC(N)=NC3(C)C)cc2Cl)c1 | active: 62%
